Data on 18 molecules can be found in the supplement of paper PMC8007513.

The list shows a part of the results. Repeats are few or missing, and single values can be far off.

This experiment deals with Saccharomyces cerevisiae BY4743. Nature of the experiment: growth (OD600) with compound + IPBC relative to untreated control; higher = less growth inhibition. The note with it: compound concentration: 133 uM; IPBC concentration: 0.5 ug/ml; 20 h. As for the experimental part:
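NMCCC compounds (133 uM) combined with IPBC (0.5 ug/ml) against Saccharomyces cerevisiae BY4743 in YPD, 96-well plates. Growth was read as OD600 at 20 h and expressed as % of the untreated control. Single pass.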
As to `COc1ccccc1-c1noc(CSc2n[nH]c(C(C)C)n2)n1` + CCCCNC(=O)OCC#CI [3-iodo-2-propynyl butylcarbamate (IPBC)], the growth stood at 111%. Regarding `N#Cc1c(O)nc(SCc2cccc(C(=O)O)c2)nc1-c1ccco1` + CCCCNC(=O)OCC#CI [3-iodo-2-propynyl butylcarbamate (IPBC)], the growth worked out at 89.2%. In the case of `CC(C)C(CNS(=O)(=O)c1ccc2c(c1)CCCC2)N1CCOCC1` (stereo not drawn) + CCCCNC(=O)OCC#CI [3-iodo-2-propynyl butylcarbamate (IPBC)] it was 109%. Turning to `CC(C)C1=CC=CC(=C1NC(=O)CN(C)\C2=N\[S](=O)(=O)C3=CC=CC=C23)C(C)C` + CCCCNC(=O)OCC#CI [3-iodo-2-propynyl butylcarbamate (IPBC)], the growth was determined as 105%. As to `CCOc1cc(C(=O)N(C)Cc2nc3ccccc3s2)cc(OCC)c1OCC` + CCCCNC(=O)OCC#CI [3-iodo-2-propynyl butylcarbamate (IPBC)], the growth amounted to 105%. As for `COc1cc(OC)cc(-c2nnc(SCC(=O)N3CCOCC3)o2)c1` + CCCCNC(=O)OCC#CI [3-iodo-2-propynyl butylcarbamate (IPBC)], the growth came to 89.7%. `COC(=O)\C1=C(/N)OC2=CC(=NC(=C2C1C3=CC=CC=C3)O)C` (stereo not drawn) + CCCCNC(=O)OCC#CI [3-iodo-2-propynyl butylcarbamate (IPBC)]: the growth is 86.5%. In the case of `CCOC(=O)c1sc(NC(=O)C(F)(F)F)c(C(=O)OC)c1C` + CCCCNC(=O)OCC#CI [3-iodo-2-propynyl butylcarbamate (IPBC)] it was 105%; in that of `CCCc1cc(O)nc(SCC(=O)Nc2c(C)nn(-c3ccccc3)c2C)n1` + CCCCNC(=O)OCC#CI [3-iodo-2-propynyl butylcarbamate (IPBC)], 99.3%. In the case of `COC(=O)c1cc(S(=O)(=O)NCCc2sccc2C)c[nH]1` + CCCCNC(=O)OCC#CI [3-iodo-2-propynyl butylcarbamate (IPBC)] it was 111%; in that of `Cc1cc(C)nc(NS(=O)(=O)c2ccc(-n3cnnn3)cc2)n1` + CCCCNC(=O)OCC#CI [3-iodo-2-propynyl butylcarbamate (IPBC)], 100%.

For the molecule `NC(=O)c1ccc(S(=O)(=O)N2CCN(CCC(=O)N3CCOCC3)CC2)o1` + CCCCNC(=O)OCC#CI [3-iodo-2-propynyl butylcarbamate (IPBC)], the growth is 85%. Consider `O=C(NCC(c1ccco1)S(=O)(=O)c1cccs1)C(=O)NC1CCCCC1` (stereo not drawn) + CCCCNC(=O)OCC#CI [3-iodo-2-propynyl butylcarbamate (IPBC)], for which the growth was 89%. `Cc1ccc(NC(=O)C(Sc2nnc(C)n2C)c2ccccc2)cc1` (stereo not drawn) + CCCCNC(=O)OCC#CI [3-iodo-2-propynyl butylcarbamate (IPBC)]: the growth is 108%. For the molecule `CCCC(C(=O)Nc1cc(OC)c(OC)c(OC)c1)N1Cc2ccccc2C1=O` (stereo not drawn) + CCCCNC(=O)OCC#CI [3-iodo-2-propynyl butylcarbamate (IPBC)], the growth came out at 105%. In the case of `CCOC(=O)c1cc(C)n(CCCN2CCOCC2)c1C` + CCCCNC(=O)OCC#CI [3-iodo-2-propynyl butylcarbamate (IPBC)] it was 95.2%; in that of `CN(C)S(=O)(=O)c1cccc(CSc2ccc3c(c2)OCCCO3)c1` + CCCCNC(=O)OCC#CI [3-iodo-2-propynyl butylcarbamate (IPBC)], 75.9%. Consider `CCN(CC)CCNC(=O)CN1\C=N/C2=C(C(=NO2)C)C1=O` + CCCCNC(=O)OCC#CI [3-iodo-2-propynyl butylcarbamate (IPBC)], for which the growth turned out to be 97.6%.
